For four substances, binding results are on record in PMC10445738.

Chains of the proteins cited; added tags and fusions are not shown. Lines headed by an entry give the natural chain unless they say otherwise; changes in a name come on top.
UniProt Q96BN8: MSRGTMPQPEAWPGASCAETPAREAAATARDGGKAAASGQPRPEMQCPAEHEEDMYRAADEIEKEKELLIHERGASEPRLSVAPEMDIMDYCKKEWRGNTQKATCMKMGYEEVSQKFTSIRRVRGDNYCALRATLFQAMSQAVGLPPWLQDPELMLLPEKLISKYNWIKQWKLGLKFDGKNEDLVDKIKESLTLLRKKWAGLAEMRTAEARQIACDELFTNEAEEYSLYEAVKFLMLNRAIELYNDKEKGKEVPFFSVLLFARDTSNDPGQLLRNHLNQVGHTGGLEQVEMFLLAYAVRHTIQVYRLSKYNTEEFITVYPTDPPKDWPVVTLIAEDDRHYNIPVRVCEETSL
UniProt Q60838: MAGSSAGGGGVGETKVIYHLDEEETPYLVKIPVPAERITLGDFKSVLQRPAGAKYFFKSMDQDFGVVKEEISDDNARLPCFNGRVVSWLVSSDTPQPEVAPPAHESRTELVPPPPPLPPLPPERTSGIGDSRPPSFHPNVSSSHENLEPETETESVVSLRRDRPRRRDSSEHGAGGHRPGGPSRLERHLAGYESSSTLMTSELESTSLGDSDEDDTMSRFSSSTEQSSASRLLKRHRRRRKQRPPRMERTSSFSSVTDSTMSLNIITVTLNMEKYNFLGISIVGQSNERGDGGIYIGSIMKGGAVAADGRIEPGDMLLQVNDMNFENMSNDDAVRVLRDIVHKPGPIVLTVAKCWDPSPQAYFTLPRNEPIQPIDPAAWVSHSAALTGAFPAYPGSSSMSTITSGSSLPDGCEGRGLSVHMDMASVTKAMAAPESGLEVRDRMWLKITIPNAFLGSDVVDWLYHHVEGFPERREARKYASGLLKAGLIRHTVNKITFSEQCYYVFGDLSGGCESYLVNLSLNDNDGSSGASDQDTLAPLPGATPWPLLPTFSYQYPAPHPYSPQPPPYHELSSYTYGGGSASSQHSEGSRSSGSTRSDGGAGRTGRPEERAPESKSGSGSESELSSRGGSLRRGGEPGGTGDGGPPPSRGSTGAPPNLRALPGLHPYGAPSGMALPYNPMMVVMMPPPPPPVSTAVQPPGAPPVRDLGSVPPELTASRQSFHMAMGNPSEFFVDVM
UniProt Q14160: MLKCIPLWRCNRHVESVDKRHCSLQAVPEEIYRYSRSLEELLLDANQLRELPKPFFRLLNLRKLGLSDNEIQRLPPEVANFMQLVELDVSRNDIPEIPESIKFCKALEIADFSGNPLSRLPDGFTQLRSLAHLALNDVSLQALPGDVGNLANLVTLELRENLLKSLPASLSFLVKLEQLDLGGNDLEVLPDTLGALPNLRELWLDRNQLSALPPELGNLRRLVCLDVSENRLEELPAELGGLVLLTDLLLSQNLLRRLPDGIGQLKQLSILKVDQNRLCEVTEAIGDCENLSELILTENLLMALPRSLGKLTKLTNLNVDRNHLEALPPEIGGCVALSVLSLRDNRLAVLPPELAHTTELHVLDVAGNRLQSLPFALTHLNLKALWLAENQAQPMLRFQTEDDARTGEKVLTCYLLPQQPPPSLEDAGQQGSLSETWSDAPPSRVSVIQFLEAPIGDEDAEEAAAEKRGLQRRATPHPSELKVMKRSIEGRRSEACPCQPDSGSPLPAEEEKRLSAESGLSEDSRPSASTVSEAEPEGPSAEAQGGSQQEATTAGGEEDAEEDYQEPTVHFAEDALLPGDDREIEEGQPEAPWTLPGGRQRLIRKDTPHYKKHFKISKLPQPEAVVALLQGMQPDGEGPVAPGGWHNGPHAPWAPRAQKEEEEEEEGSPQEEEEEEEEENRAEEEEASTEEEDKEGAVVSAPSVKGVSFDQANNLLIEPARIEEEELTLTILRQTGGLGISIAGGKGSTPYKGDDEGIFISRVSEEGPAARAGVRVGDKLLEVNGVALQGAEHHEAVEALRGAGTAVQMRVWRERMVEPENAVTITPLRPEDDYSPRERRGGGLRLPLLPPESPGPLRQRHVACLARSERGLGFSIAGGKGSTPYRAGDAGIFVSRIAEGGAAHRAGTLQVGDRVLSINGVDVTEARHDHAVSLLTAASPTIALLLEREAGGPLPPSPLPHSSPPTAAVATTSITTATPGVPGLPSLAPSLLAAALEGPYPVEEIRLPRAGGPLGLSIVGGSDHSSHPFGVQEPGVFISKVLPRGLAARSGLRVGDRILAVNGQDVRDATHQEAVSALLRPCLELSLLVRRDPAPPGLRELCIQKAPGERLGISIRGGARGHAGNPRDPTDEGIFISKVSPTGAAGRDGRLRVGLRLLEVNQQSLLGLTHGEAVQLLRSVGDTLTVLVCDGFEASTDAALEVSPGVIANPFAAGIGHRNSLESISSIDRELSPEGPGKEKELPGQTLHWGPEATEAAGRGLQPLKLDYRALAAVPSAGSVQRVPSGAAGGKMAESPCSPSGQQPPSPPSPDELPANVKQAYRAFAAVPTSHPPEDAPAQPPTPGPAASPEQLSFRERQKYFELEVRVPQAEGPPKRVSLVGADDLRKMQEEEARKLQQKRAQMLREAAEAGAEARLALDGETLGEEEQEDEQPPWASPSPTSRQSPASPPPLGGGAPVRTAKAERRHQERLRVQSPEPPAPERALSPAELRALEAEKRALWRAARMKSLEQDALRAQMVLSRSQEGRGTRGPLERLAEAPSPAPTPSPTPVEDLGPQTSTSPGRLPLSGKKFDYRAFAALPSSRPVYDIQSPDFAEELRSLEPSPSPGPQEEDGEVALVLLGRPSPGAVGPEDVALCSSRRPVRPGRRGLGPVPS

Results are given in words; binding and its absence hold for the method and conditions named. Binding seen in cells or lysates may run through a third protein. For some of these results: Binding calls can cover weak binding; strength is not graded here.

Experiment [1] addresses FLAG-OTULIN (transiently expressed) (UniProt Q96BN8). Put plainly: co-IP; reciprocal co-immunoprecipitation of FLAG-OTULIN and Dvl2 constructs from transfected HEK293T cells; lysis buffer as in a3 with 4 μM MG132 added; immunoblot.
Another experiment has as its target HA-OTULIN^ΔPBM (UniProt Q96BN8). Put plainly: co-IP; HA-OTULIN constructs and FLAG-SCRIB transiently co-expressed in HEK293T; lysis in 50 mM Tris pH 7.4, 100 mM EDTA, 150 mM NaCl, 0.5% Triton X-100; IP with anti-FLAG or anti-HA antibody and protein A/G agarose, washes with 500 mM NaCl; immunoblot.

Consider “Dvl2 lacking the PDZ domain (from UniProt Q60838)”, for which the binding entry in experiment [1] was “binds”. As for FLAG-SCRIB (from UniProt Q14160 1-1655), in the experiment with HA-OTULIN^ΔPBM, the binding entry is “no binding”.

With “Dvl2 lacking the DIX domain (from UniProt Q60838)”, the binding result in experiment [1] was “binds”.

For “Dvl2 lacking the DEP domain (from UniProt Q60838)”, the binding entry in experiment [1] was “binds”.
